The results in this text go back to article PMC7862772.

Assay [1] addresses recombinant E. tenella CDPK4, His-tagged (His-rEtCDPK4) (Eimeria tenella). In words: affinity purification with mass spectrometry; His pull-down (Pierce His Protein Interaction Pull-Down Kit): 150 ug His-rEtCDPK4 and 450 ug proteins of sporulated oocysts on the resin overnight, 4°C; Hexa His as negative control; eluate to shotgun mass spectrometry; only the target purified.
Assay [2] has as its target Eimeria tenella calcium-dependent protein kinase 4 (EtCDPK4), endogenous (Eimeria tenella (endogenous in sporulated oocysts)). The assay can be described thus: affinity purification with mass spectrometry; 50 ug rabbit anti-rEtCDPK4 IgG on A/G resin (Pierce Co-Immunoprecipitation Kit), 50 ug whole proteins of sporulated oocysts (RIPA lysate), 4°C overnight; eluate by SDS-PAGE, silver stain, whole lane to shotgun mass spectrometry; negative control resin / pre-immune rabbit IgG.

No constants are given. Whether binding was seen depends on the method and setting. In cells and extracts the contact can be indirect. A yes stands for co-enrichment or nearness to the bait. Other partners may have been found.

B1: Eimeria tenella translation initiation factor eIF-5A (EteIF-5A), endogenous (protein, UniProt U6KT65 1-161)
chain: MSDAEEVSFERADAGASLTYPQQAGAIKKNGFCMLKGNPCKVVDYSTSKTGKHGHAKAHIVGLDIFTGKKYEDICPTSHNMEVPNVKRSEFQLIDVSDDGFVSLLLDNGDLKSDLTLPKDSDGNLDEVALQVKSLFQEGKGVLVSVLAACGKEKIVACKEL
On to B1, for which the binding result in assay [1] and in assay [2] was “binds” each time.
